Test results: the supplement of paper PMC10849652
The list shows a part of the results.

Chains of the proteins cited; added tags and fusions are not shown. Lines headed by an entry give the natural chain unless they say otherwise; changes in a name come on top.
UniProt Q9Y6D9: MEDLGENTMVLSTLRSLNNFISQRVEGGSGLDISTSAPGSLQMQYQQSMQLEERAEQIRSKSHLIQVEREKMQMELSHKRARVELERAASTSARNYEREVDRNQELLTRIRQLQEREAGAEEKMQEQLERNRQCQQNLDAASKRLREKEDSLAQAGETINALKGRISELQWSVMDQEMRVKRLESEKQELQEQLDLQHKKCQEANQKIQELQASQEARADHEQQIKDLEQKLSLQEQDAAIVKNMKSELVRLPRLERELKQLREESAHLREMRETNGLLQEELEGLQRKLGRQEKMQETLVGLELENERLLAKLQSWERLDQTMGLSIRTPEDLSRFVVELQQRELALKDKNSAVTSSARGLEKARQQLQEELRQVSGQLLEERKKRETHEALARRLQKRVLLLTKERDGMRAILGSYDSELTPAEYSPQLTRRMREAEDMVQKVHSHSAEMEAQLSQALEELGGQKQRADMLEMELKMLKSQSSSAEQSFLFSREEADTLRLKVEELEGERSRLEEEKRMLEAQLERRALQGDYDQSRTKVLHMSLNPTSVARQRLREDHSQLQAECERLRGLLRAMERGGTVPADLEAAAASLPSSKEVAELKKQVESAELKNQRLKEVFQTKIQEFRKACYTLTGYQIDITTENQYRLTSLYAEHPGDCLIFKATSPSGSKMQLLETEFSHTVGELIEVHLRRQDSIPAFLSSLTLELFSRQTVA
UniProt O60476: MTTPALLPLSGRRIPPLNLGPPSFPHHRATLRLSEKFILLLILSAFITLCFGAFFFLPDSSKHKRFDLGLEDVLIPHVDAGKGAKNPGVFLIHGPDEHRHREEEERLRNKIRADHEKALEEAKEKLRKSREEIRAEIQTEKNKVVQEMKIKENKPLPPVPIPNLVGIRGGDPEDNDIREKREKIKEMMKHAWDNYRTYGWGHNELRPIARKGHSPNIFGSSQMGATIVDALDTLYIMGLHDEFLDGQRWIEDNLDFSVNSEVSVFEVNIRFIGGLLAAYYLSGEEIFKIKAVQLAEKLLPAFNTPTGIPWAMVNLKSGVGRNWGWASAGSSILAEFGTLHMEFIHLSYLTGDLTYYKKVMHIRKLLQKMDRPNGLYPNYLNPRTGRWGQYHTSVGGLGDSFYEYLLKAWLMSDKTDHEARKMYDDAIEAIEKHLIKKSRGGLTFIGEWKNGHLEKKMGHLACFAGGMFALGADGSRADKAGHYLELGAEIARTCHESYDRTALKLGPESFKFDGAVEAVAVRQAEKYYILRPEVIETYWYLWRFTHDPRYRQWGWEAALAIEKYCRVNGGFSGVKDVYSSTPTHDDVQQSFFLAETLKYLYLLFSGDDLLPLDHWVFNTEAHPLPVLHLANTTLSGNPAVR
UniProt Q9BQ69: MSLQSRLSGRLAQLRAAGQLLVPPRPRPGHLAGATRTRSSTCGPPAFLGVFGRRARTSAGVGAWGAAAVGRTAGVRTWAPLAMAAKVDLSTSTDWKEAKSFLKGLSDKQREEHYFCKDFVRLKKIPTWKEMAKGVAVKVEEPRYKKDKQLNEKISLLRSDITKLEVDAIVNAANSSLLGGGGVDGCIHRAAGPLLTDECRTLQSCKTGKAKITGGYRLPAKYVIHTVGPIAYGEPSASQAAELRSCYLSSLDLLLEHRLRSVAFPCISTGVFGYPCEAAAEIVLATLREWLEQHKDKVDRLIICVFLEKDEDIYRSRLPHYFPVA
UniProt Q5U5X0: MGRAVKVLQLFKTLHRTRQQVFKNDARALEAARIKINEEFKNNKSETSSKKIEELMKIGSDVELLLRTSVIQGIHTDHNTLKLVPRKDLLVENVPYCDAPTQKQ
UniProt O95372: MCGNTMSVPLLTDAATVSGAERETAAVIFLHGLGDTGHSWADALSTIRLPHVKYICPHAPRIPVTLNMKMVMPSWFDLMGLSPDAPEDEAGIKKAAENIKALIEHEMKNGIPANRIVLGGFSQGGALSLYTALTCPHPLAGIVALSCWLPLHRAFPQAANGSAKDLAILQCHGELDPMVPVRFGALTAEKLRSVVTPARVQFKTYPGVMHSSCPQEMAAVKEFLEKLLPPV
UniProt Q9BRK4: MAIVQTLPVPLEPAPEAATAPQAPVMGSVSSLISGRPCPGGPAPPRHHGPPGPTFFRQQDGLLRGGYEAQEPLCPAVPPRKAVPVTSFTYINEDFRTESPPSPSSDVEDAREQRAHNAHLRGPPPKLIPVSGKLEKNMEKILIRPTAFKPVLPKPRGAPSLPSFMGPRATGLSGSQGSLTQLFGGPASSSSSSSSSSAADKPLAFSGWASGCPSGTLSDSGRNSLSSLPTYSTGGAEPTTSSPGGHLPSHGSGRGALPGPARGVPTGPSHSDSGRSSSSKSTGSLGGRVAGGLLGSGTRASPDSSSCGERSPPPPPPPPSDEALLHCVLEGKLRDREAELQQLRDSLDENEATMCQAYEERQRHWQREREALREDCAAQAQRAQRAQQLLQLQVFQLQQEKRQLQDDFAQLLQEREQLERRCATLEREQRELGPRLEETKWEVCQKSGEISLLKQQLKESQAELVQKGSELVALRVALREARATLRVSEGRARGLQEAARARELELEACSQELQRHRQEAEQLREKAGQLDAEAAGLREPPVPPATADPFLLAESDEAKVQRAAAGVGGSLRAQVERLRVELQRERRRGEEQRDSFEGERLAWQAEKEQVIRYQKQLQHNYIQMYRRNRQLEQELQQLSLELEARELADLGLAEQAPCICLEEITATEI
UniProt Q14244: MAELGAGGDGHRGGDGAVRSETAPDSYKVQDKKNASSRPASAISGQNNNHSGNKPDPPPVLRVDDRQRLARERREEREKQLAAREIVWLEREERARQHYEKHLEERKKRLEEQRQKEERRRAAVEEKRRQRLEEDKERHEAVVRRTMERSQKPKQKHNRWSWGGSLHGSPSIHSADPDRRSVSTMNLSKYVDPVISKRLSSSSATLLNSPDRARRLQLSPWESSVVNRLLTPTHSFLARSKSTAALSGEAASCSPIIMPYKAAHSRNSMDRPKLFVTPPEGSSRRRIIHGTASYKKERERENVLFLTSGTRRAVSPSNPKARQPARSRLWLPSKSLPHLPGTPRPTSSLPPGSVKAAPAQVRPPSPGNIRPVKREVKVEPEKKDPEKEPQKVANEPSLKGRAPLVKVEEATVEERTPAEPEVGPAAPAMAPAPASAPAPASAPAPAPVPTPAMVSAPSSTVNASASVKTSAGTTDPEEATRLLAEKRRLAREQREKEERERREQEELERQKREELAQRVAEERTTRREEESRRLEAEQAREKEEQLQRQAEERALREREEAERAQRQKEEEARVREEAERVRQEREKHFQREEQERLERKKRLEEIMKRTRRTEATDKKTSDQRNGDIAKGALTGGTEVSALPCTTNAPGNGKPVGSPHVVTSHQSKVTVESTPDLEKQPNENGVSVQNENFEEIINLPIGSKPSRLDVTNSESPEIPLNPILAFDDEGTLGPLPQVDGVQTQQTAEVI
UniProt P27816: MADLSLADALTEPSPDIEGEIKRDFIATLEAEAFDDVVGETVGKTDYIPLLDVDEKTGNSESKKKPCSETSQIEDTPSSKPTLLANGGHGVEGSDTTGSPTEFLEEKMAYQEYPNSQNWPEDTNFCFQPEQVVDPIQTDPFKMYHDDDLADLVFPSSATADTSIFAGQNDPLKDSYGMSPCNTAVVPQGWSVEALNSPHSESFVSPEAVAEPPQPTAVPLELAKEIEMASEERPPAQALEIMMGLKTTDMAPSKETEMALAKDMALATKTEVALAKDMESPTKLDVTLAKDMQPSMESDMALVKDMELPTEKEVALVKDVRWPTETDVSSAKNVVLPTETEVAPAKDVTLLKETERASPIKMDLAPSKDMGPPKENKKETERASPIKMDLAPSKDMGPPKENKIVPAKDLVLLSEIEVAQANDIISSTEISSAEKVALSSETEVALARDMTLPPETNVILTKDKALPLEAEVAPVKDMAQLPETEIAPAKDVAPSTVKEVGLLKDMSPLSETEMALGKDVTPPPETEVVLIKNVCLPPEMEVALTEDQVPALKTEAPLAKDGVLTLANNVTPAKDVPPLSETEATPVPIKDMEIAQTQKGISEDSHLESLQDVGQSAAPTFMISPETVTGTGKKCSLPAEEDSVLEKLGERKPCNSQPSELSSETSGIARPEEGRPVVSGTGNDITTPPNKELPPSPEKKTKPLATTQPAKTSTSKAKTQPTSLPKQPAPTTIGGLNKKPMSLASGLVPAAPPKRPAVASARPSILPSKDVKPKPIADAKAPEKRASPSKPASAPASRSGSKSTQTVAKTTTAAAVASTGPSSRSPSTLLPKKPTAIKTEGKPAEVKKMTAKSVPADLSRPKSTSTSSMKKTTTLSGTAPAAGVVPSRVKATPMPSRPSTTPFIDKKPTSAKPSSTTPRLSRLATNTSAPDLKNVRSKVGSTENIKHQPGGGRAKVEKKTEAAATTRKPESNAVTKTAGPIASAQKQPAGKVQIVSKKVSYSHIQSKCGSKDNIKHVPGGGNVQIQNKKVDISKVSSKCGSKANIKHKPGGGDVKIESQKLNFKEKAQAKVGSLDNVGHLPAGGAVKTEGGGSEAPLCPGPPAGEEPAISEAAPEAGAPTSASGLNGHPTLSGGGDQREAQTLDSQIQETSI
UniProt P43362: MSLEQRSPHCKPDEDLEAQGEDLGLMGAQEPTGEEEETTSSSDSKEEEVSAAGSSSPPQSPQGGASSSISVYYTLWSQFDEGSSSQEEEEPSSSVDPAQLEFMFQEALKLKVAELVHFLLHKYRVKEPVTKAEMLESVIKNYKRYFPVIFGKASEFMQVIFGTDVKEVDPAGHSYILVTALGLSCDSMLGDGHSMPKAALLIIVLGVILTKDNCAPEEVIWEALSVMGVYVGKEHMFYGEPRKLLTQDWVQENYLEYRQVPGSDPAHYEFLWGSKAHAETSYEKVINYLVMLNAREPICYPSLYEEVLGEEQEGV
UniProt Q9HD34: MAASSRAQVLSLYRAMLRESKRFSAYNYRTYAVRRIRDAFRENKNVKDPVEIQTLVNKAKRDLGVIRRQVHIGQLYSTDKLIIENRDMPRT
UniProt Q9BSK0: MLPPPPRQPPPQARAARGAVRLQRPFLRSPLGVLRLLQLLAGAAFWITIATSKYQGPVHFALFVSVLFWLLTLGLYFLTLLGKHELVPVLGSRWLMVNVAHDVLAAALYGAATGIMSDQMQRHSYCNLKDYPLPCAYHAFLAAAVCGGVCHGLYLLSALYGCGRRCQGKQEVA
UniProt Q7Z3D4: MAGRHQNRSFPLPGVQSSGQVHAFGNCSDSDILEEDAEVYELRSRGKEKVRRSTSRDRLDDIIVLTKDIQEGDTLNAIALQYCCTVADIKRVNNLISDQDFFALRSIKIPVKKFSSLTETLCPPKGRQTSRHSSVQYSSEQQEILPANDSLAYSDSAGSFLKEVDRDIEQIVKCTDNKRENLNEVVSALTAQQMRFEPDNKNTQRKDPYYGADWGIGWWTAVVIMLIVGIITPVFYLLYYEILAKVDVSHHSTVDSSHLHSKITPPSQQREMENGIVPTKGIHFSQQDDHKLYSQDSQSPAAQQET
UniProt Q16539, whole entry, looked up: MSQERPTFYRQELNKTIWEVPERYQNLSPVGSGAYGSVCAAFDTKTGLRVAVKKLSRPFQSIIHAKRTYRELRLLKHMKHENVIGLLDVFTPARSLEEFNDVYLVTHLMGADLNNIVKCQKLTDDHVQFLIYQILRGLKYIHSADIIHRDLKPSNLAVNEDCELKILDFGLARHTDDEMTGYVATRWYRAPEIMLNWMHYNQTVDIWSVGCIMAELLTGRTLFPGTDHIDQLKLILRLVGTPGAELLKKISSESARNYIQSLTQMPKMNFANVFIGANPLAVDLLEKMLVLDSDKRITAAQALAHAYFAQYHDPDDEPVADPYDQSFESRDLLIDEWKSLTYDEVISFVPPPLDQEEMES
UniProt P29966: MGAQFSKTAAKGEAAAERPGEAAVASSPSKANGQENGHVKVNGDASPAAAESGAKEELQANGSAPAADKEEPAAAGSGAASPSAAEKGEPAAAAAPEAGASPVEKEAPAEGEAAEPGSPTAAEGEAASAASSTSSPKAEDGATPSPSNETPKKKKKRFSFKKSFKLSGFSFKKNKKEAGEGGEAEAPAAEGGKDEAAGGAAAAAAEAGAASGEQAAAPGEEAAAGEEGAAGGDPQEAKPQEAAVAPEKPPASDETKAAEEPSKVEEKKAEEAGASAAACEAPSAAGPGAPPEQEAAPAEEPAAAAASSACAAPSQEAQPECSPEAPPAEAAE

compound: Cc1sc2c(c1C)C(c1ccc(Cl)cc1)=N[C@@H](CC(=O)OC(C)(C)C)c1nnc(C)n1-2; assay: log2 fold change, soluble protein after heating vs DMSO (PISA); higher = thermal stabilisation; K562 lysate, 10 uM; active = over 0.2 and 3.5 SD of the protein, either way, in both replicates (recomputed)
Method in brief: (§1)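 A 30 min treatment with 10 μM compound was applied to crude K562 extract at 1 mg/mL protein in PBS pH 7.4 with 1 mM MgCl2. Heating for 3 min spanned 48°C-58°C, after which aliquots were pooled, adjusted to 0.5% NP-40 at 4°C and spun at 21,000xg for 90 min. TMTpro 16plex LC-MS/MS of the supernatant, with channel sums equalised, gave values recorded as log-two fold change in thermal stability against solvent controls, from duplicates.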

| Target | log2 fold change |
| --- | --- |
| MAD1L1 (UniProt Q9Y6D9) | inactive: -0.013 |
| MAGI3 isoform 1 (UniProt Q5TCQ9) | inactive: -0.077 |
| MAN1A2 (UniProt O60476) | inactive: 0.055 |
| MAML2 (UniProt Q8IZL2) | inactive: -0.111 |
| MAP4K4 isoform 3 (UniProt O95819) | inactive: -0.021 |
| MAP1S (UniProt Q66K74) | inactive: 0.019 |
| MARK2 (UniProt E9PC69) | inactive: -0.043 |
| MACF1 (UniProt H3BQK9) | inactive: -0.02 |
| MACROD1 (UniProt Q9BQ69) | inactive: 0.049 |
| MARS (UniProt P56192) | inactive: -0.003 |
| LYRM7 (UniProt Q5U5X0) | inactive: -0.002 |
| LYAR (UniProt Q9NX58) | inactive: 0.031 |
| MAPKAPK5 (UniProt Q8IW41) | inactive: 0.013 |
| LYPLA2 (UniProt O95372) | inactive: 0.041 |
| LZTS2 (UniProt Q9BRK4) | inactive: -0.104 |
| MAP7 (UniProt Q14244) | inactive: 0.06 |

| Target | log2 fold change |
| --- | --- |
| MAN2A2 (UniProt P49641) | inactive: -0.009 |
| MAK16 (UniProt Q9BXY0) | inactive: 0.015 |
| MAT2A (UniProt P31153) | inactive: 0.004 |
| MALSU1 (UniProt Q96EH3) | inactive: -0.07 |
| MAP4 isoform 5 (UniProt P27816) | inactive: 0.181 |
| MAGEA9 (UniProt P43362) | inactive: -0.021 |
| LYRM4 (UniProt Q9HD34) | inactive: 0.006 |
| MARVELD1 (UniProt Q9BSK0) | inactive: -0.178 |
| LYSMD3 (UniProt Q7Z3D4) | inactive: -0.096 |
| MAPK14 (UniProt Q16539) | inactive: -0.04 |
| MAP3K20 (UniProt Q9NYL2) | inactive: 0.118 |
| MAN2B1 (UniProt O00754) | inactive: -0.013 |
| MACF1, A0A0A6YYJ5 | inactive: 0.004 |
| MARCKS (UniProt P29966) | inactive: 0.049 |
| MARK1 (UniProt Q9P0L2) | inactive: -0.006 |

compound: c1ccc([C@@H]2C[C@H]2NC2CCNCC2)cc1; assay: as above
Method in brief: as §1

| Target | log2 fold change |
| --- | --- |
| MAD1L1 (UniProt Q9Y6D9) | inactive: -0.011 |
| MAGI3 isoform 1 (UniProt Q5TCQ9) | inactive: 0.001 |
| MAN1A2 (UniProt O60476) | inactive: 0.073 |
| MAML2 (UniProt Q8IZL2) | inactive: -0.071 |
| MAP4K4 isoform 3 (UniProt O95819) | inactive: 0.083 |
| MAP1S (UniProt Q66K74) | inactive: 0.018 |
| MARK2 (UniProt E9PC69) | inactive: 0.035 |
| MACF1 (UniProt H3BQK9) | inactive: 0.013 |
| MACROD1 (UniProt Q9BQ69) | inactive: 0.075 |
| MARS (UniProt P56192) | inactive: 0.039 |
| LYRM7 (UniProt Q5U5X0) | inactive: 0.037 |
| LYAR (UniProt Q9NX58) | inactive: 0.11 |
| MAPKAPK5 (UniProt Q8IW41) | inactive: 0.01 |
| LYPLA2 (UniProt O95372) | inactive: 0.127 |
| MAP7 (UniProt Q14244) | inactive: -0.022 |
| MAN2A2 (UniProt P49641) | inactive: 0.004 |
| MAK16 (UniProt Q9BXY0) | inactive: -0.025 |
| MAT2A (UniProt P31153) | inactive: 0.012 |
| MALSU1 (UniProt Q96EH3) | inactive: -0.105 |
| MAGEA9 (UniProt P43362) | inactive: 0.015 |
| LYRM4 (UniProt Q9HD34) | inactive: 0.004 |
| MARVELD1 (UniProt Q9BSK0) | inactive: -0.083 |
| LYSMD3 (UniProt Q7Z3D4) | inactive: -0.084 |
| MAPK14 (UniProt Q16539) | inactive: -0.015 |
| MAP3K20 (UniProt Q9NYL2) | inactive: -0.011 |
| MAN2B1 (UniProt O00754) | inactive: 0.035 |
| MACF1, A0A0A6YYJ5 | inactive: 0.004 |
| MARCKS (UniProt P29966) | inactive: 0.042 |
| MARK1 (UniProt Q9P0L2) | inactive: 0.116 |
